# Source: patent publication US20160367515A1, “Improved delivery of poorly water soluble drugs with aphafetoprotein stabilized with metal ions” (Oy Safemed Ltd., priority 2013, published 2016)
# Some results were stated once for a whole list of compounds, not compound by compound.
# System: mammary carcinoma cell line MCF-7
# Experiment: MTS cell viability assay, mammary carcinoma MCF-7 cells
# Format: cell-based, human
# Settings: MCF7 + Zn-rhAFP 1.4 μM (Zn:rhAFP 4:1) + drug, 48 h
# Procedure: Effect of binding of Zn ions to rhAFP and sugar-free rhAFPo species was tested by measuring of their dose-dependent tumor-suppressive effect for mammary carcinoma cell line MCF-7 in vitro, as it was earlier described for natural embryonic eAFP (Dudich et al., Eur. J. Biochem. 1999; 266: 750-761). MCF-7 cells were incubated with various doses of rhAFP (rhAFPo), Zn-rhAFP (Zn-rhAFPo) or with natural embryonic eAFP for 48 h, and thereafter their viability was assessed by the colorimetric MTS assay (FIG. 1A).
# Cell viability was assessed by the Promega CellTiter 96 AQueous Non-Radioactive Cell Proliferation MTS assay (Promega, USA) according to manufacturer's instructions. Cells were incubated with various AFP samples for 48 h as described above, followed by incubation with MTS-test reagents and measuring of the light adsorption of the formasan, appeared in the lysed cell supernatants at 492 nm by using VICTOR-1420 multilabel counter (Wallac, Finland). Intact cell cultures incubated without additions were taken as a control. By such a way the quantity of viable cells capable to internalize MTS dye was determined. Results were expressed as the mean optical density (OD)±the standard error of the mean triplicate cultures. The extent of cell viability was calculated as an average OD in experimental wells after addition of testing compounds in relation to untreated control wells, that was taken as 100%
# To evaluate the efficacy of preparations rhAFP/Ptx and Zn-rhAFP/Ptx we compared the cytotoxic effect of Ptx alone or that in combination with rhAFP or Zn-rhAFP for taxol-resistant human hepatoma HepG2 cells, human breast carcinoma cells MCF-7, and rat glioma C6 cell lines in vitro. RhAFP or Zn-rhAFP were incubated with various doses of Ptx at 37° C. for 1 h to allow complex formation with molecular ratios rhAFP:Ptx 1:1; 1:3 or 1:5 and thereafter the mixtures were introduced into the cell culture for 48 hrs. Cytotoxicity was measured by MTS assay.
# Various doses of rhAFP/Ptx complexes were tested for their effectiveness for inhibition of human mammary carcinoma MCF-7, human hepatoma HepG2, and rat glioma C6 tumor cell growth in vitro. First, we optimized drug concentration and rhAFP amount to the extent that it would not generate an extensive cytotoxic effect alone. Then, the cells were seeded in 96-well plates at a density of 3×10^3/well in 100 μl of medium for 24 hrs to allow adherence. The next day, rhAFP or Zn-rhAFP combined with Ptx at the molecular ratios of 1:1; 1:3 or 1:5 were added into the each well. After 48 h of incubation MTS assays were performed to determine survival rate of the cells. All the experiments were repeated at least three times. The results were expressed as mean±standard error (SE).
# The coefficient of drug interaction (CDI) was calculated to analyze the effects of rhAFP and Ptx combinations. CDI was calculated by the equation: CDI=SRAFP/drug[…]/SRAFP×SRdrug, where SRAFP/drug is the average survival rate of combination group, and SRAFP or SRdrug are the average survival rates of the single agent groups. According to our evaluation, CDI values <1, =1 or >1 indicate that the combinations are synergistic, additive or antagonistic respectively.
# The values of Zn-rhAFP/Ptx or rhAFP/Ptx complex concentration, which inhibited the cell viability by 50% (IC50) when compared to untreated control, were calculated according to the Hill's equation (sigmoid model of concentration-response curve) from the curves of dependence of the relative percentage of viable cells from AFP concentration expressed as mean values from three independent experiments±SD.
# In order to confirm the hypothesis that the combination of Zn-rhAFP and various low water-soluble chemotherapeutic agents would reveal increased anti-tumor efficacy, different cytotoxic compounds were tested in combination with Zn-rhAFP for their cell-killing effect in MCF-7 cells in vitro. […]
compound,measurement,setting,value
"COc1cccc2c1C(=O)c1c(O)c3c(c(O)c1C2=O)C[C@@](O)(C(=O)CO)C[C@@H]3O[C@H]1C[C@H](N)[C@H](O)[C@H](C)O1 [Doxorubicin, doxorubicin]",Coefficient for drug interaction (CDI),listed as doxorubicin,< 0.7
"CC(=O)O[C@H]1C(=O)[C@@]2(C)[C@H]([C@H](OC(=O)c3ccccc3)[C@]3(O)C[C@H](OC(=O)[C@H](O)[C@@H](NC(=O)c4ccccc4)c4ccccc4)C(C)=C1C3(C)C)[C@]1(OC(C)=O)CO[C@@H]1C[C@@H]2O [Ptx, paclitaxel]",Coefficient for drug interaction (CDI),listed as paclitaxel,< 1
"COc1cc([C@@H]2c3cc4c(cc3[C@@H](O[C@@H]3O[C@@H]5CO[C@@H](C)O[C@H]5[C@H](O)[C@H]3O)[C@H]3COC(=O)[C@H]23)OCO4)cc(OC)c1O [Etoposide, etoposide]",Coefficient for drug interaction (CDI),listed as etoposide,< 1
"O=c1c(-c2ccc(O)cc2)coc2cc(O)cc(O)c12 [Genistein, genistein]",Coefficient for drug interaction (CDI),listed as genistein,< 1
"CC(C)=CCC/C(C)=C/C=C/C(C)=C/C=C/C(C)=C/C=C/C=C(C)/C=C/C=C(C)/C=C/C=C(\C)CCC=C(C)C [Lycopene, lycopene]",Coefficient for drug interaction (CDI),listed as lycopene,< 0.7
"COc1cc(/C=C/C(=O)CC(=O)/C=C/c2ccc(O)c(OC)c2)ccc1O [Curcumin, curcumin]",Coefficient for drug interaction (CDI),listed as curcumin,< 1
"Oc1ccc(C=Cc2cc(O)cc(O)c2)cc1 [Resveratrol, resveratrol]",Coefficient for drug interaction (CDI),listed as resveratrol,< 0.7
